Laboratory results published in patent US9399666B2, “Inhibiting interaction between the HIF-1ALPHA and p300/CBP with hydrogen bond surrogate-based helices” (New York University, priority 2008, dated 2016).
These are yes or no findings as the source states them, for the method shown. Some entries that bind do so weakly or less than the wild type.

Sequences of proteins named here, by UniProt entry; tags and fusion partners are left off. Residues count along the entry.
UniProt Q09472, residues 323-423: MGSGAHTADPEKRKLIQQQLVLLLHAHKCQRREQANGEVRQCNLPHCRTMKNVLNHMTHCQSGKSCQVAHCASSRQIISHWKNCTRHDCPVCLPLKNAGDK

Target: T1, p300 (UniProt Q09472 323-423, limits assumed)
T1 construct: also called p300/CBP
Test: isothermal titration calorimetry

Binder	binding
TAYDCEVNA (N-terminal acetyl (Ac); C-terminal amide (NH2)) [peptide 24 (Ac…-NH2)]	binds
TSYDCEVNA (N-terminal acetyl (Ac); C-terminal amide (NH2)) [peptide 23 (Ac…-NH2)]	binds
